In test [1] the target is Cyclin-dependent kinase 6 (human (endogenous in H69AR and H446DDP)) (UniProt Q00534). In words: co-IP; endogenous proteins; H69AR and H446DDP cells with or without PD (0.5 µM) and LEE (0.8 µM), also scramble- or siAMBRA1-transfected H69AR cells; RIPA lysate, antibody or control IgG, protein A/G magnetic beads, western blot. In general terms: In western blotting, separated proteins are transferred to a membrane and probed.

The chains behind the UniProt entries cited, without tags or fusion partners.
UniProt Q00534: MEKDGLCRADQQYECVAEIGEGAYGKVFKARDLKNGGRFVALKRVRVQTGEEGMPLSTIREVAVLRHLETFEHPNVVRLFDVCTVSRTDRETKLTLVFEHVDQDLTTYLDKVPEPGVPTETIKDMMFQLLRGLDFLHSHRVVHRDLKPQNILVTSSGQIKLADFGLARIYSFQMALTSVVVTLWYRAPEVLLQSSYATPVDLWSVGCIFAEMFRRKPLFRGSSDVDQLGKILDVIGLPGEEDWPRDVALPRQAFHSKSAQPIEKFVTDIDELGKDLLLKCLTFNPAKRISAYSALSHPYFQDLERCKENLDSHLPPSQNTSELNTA
UniProt Q13619: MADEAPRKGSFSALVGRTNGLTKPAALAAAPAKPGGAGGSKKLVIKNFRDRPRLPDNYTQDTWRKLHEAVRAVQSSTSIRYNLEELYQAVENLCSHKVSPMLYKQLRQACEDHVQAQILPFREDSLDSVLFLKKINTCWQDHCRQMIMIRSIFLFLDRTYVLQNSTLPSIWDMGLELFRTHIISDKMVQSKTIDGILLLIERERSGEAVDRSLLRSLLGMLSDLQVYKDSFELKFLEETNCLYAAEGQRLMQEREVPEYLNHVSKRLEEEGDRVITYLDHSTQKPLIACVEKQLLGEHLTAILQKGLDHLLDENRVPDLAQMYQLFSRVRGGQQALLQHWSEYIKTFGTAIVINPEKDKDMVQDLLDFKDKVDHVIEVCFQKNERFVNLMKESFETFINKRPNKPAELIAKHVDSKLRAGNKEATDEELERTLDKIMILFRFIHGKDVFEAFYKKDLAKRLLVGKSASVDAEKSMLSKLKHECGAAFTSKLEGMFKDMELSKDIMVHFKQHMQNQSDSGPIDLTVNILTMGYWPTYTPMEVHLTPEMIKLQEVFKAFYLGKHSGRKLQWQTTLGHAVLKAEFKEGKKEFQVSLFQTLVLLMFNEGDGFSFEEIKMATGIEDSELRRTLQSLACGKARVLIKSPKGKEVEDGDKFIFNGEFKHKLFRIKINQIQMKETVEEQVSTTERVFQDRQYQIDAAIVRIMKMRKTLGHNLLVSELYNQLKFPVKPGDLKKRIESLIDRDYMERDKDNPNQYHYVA
UniProt P19532: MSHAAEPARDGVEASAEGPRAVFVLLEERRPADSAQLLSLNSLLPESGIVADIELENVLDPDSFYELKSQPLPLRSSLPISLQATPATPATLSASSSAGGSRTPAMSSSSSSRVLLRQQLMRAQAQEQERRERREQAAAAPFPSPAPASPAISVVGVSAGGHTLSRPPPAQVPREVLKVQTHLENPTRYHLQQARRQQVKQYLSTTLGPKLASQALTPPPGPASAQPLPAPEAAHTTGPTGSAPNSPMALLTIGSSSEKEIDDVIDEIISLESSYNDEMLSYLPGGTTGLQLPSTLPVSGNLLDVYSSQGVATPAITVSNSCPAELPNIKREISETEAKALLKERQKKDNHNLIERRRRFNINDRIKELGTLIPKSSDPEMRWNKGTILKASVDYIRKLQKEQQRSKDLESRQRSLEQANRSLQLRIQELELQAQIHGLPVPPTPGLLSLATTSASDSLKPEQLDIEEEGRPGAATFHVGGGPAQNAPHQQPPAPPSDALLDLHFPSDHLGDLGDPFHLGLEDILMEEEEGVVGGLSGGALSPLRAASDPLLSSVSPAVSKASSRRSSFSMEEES

Test [2] shares this target. In words: co-IP; endogenous proteins; cytosolic and nuclear fractions of H69AR and H446DDP cells; antibody or control IgG, protein A/G magnetic beads, western blot.

No constants are given. Whether binding was seen depends on the method and setting. In cells and extracts the contact can be indirect. Some results given as binding are weak or reduced against the parent protein; the word gives no strength.

As to CUL4A (from UniProt Q13619 1-759), the binding result in test [1] is recorded as “binds”.

As to TFE3 (from UniProt P19532 1-575), the binding entry in test [2] is “binds”.

The values above are taken from paper PMC11481398.
